# Measurements published in the supplement of paper PMC6411743.
# Amino acid sequences for entries named in this document (tags omitted). A change or cut given only in a name is not applied to a line headed by its entry.
# UniProt P51610: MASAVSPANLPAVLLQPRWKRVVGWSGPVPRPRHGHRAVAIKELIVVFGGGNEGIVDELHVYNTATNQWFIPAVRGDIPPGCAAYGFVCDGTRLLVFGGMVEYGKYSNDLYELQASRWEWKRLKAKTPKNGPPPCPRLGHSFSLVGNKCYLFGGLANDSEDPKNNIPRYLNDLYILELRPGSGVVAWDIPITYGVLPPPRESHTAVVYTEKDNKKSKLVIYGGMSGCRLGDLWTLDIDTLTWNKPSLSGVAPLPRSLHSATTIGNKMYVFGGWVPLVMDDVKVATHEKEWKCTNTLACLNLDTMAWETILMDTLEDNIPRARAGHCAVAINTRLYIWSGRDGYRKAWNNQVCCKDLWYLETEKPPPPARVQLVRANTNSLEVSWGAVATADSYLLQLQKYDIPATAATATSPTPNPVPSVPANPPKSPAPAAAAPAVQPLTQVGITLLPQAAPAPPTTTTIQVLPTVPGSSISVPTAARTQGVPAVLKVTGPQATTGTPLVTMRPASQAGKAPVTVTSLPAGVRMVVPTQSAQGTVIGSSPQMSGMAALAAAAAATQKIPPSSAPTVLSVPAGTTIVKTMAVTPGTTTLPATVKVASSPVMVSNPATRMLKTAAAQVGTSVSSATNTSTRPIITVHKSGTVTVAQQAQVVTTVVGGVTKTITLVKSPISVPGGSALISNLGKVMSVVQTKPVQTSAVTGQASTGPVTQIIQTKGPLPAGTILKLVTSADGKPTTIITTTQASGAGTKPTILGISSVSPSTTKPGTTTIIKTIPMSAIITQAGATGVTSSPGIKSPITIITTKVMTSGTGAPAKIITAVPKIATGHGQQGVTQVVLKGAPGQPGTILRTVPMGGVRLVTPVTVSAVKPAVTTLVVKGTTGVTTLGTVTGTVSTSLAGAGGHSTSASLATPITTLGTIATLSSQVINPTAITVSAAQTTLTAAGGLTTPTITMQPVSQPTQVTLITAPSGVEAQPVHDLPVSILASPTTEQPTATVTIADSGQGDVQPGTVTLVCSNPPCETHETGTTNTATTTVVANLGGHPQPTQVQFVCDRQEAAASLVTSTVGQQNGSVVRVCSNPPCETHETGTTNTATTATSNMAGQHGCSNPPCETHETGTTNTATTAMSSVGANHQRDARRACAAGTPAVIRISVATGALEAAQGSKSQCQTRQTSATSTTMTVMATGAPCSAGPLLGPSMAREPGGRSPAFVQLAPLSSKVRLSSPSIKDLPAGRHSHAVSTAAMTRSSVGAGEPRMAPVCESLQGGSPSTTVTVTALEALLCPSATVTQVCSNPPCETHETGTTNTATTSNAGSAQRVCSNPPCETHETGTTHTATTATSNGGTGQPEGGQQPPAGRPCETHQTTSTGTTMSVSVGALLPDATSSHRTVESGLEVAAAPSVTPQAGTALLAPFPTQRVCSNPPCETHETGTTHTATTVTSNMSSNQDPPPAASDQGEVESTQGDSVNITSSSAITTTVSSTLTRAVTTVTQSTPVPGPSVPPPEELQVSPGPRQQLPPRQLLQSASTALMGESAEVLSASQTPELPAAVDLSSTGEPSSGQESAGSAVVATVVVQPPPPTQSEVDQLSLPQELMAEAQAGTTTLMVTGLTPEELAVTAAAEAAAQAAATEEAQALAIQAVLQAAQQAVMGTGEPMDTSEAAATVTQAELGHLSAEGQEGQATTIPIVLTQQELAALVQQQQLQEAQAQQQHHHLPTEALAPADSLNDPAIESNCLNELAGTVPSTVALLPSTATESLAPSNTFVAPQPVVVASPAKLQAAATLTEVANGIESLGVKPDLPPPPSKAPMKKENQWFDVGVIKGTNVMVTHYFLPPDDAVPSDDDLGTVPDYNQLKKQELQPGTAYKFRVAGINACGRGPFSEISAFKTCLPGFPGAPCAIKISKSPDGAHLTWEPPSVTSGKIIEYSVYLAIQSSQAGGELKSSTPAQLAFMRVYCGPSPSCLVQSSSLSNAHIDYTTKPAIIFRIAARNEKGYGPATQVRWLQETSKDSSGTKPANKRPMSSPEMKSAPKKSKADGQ
# UniProt Q13685: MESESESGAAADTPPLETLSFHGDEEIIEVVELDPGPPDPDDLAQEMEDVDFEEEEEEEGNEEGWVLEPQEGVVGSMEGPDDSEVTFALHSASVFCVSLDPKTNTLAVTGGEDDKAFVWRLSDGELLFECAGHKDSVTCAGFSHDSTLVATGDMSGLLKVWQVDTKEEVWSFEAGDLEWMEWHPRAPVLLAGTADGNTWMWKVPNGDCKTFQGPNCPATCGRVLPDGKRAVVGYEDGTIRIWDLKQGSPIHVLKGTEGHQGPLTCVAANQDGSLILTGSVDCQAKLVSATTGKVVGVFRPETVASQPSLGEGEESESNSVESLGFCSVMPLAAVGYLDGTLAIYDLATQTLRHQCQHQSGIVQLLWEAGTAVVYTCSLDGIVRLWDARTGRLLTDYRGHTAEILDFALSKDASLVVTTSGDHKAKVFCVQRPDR
# UniProt O76075: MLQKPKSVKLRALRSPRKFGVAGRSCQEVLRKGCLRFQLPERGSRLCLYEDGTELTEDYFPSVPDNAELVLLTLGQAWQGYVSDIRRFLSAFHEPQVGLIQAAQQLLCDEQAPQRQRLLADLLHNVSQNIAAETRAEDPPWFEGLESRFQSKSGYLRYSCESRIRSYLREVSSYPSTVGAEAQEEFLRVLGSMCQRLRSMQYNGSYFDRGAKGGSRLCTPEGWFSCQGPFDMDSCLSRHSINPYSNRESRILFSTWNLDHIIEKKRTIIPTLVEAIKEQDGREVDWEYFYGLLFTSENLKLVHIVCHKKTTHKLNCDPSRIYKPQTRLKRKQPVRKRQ
# UniProt Q99613, whole entry, looked up: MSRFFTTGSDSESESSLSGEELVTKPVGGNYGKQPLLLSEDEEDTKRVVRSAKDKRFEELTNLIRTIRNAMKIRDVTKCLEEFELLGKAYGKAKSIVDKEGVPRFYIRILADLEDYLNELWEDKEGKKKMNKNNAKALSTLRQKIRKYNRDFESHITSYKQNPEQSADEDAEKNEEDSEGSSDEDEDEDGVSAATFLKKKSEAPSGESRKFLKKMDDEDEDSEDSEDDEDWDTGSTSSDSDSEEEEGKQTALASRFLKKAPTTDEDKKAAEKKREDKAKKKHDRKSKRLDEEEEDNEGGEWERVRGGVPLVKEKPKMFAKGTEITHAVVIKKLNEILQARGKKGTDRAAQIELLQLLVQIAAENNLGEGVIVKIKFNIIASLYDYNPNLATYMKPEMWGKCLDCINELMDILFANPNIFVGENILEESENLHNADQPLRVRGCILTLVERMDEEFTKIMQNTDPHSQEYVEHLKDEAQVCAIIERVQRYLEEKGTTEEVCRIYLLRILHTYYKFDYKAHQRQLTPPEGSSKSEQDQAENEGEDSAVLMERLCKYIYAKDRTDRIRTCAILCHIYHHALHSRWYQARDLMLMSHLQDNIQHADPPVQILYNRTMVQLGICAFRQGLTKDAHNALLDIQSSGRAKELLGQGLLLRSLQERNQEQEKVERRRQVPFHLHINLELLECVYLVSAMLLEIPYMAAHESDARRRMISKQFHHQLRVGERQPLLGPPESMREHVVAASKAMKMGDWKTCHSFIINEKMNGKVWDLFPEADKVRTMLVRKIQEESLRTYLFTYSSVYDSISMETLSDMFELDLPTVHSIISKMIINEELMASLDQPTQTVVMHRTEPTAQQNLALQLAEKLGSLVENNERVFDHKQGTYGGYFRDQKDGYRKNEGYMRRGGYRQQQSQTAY
# UniProt Q8TBF5: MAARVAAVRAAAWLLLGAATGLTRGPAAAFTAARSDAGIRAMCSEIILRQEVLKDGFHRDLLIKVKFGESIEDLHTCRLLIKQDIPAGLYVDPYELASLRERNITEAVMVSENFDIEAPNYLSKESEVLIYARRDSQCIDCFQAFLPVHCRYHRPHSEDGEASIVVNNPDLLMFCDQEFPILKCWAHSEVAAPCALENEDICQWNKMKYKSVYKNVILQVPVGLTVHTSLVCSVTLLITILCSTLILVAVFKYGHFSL
# UniProt A6NIH7: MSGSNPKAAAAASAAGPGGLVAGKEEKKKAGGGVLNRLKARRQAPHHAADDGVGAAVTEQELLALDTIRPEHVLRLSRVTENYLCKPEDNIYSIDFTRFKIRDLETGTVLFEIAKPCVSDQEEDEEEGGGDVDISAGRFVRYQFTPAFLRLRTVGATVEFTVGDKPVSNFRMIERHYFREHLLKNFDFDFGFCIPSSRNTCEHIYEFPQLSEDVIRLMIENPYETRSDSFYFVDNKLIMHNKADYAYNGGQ
# UniProt Q8N3C7: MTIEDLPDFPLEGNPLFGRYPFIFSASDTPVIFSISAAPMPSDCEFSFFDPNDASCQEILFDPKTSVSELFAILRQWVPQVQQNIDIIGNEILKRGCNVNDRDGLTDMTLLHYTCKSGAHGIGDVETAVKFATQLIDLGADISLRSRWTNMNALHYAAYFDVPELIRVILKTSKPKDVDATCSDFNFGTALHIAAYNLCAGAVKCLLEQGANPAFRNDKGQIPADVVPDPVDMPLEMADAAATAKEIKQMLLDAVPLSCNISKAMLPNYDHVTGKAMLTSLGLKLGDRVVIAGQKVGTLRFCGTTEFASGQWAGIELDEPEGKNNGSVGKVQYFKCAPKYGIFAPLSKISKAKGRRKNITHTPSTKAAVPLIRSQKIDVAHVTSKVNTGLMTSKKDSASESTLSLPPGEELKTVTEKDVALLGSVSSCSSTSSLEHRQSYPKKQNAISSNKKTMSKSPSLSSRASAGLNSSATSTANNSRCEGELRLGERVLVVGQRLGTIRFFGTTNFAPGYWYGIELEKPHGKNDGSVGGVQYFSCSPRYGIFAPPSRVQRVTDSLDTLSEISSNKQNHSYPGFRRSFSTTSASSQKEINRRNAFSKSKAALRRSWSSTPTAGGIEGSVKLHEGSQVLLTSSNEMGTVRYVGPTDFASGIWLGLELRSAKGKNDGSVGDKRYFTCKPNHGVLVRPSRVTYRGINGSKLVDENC
# UniProt O94979: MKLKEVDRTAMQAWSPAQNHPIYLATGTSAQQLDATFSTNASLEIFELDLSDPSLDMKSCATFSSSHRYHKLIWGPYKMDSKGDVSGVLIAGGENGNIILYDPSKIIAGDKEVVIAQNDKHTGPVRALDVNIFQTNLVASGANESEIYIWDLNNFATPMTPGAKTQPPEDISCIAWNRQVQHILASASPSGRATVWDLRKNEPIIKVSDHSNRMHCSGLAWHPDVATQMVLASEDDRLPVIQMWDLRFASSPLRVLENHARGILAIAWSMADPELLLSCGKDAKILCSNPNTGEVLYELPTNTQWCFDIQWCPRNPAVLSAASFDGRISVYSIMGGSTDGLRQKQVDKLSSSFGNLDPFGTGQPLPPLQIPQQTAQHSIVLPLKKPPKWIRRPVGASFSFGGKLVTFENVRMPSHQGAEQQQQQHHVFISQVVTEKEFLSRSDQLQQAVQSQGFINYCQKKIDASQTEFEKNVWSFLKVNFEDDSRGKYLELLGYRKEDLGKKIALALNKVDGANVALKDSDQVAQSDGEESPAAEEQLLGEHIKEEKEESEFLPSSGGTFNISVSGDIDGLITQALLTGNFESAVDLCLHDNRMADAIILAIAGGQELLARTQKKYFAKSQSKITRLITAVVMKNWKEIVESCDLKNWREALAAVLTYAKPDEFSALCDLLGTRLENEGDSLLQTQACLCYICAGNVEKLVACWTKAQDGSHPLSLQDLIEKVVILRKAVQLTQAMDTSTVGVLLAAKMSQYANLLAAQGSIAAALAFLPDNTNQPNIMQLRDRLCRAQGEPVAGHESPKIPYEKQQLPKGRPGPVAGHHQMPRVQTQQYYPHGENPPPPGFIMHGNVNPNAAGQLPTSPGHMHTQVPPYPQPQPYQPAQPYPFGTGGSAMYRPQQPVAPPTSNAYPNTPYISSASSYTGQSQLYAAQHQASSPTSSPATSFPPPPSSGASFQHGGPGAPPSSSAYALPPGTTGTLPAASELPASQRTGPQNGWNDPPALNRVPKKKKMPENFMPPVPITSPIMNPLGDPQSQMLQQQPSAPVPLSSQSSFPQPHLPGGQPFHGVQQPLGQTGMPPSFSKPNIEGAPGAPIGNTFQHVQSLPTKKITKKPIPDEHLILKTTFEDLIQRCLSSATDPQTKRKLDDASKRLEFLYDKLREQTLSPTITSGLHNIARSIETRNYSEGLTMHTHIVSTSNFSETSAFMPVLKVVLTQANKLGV
# UniProt O75832: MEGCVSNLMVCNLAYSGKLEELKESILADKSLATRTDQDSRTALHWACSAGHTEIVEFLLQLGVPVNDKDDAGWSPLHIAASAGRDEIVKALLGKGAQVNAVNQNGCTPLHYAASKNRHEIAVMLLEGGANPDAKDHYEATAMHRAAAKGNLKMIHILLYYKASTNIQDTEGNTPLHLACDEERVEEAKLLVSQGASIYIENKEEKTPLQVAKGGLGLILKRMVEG
# ± gives the standard deviation of the averaged measurements. Some of the results follow.
# Compound: Nc1nc2c(ncn2[C@@H]2O[C@H](COP(=O)(O)OP(=O)(O)OP(=O)(O)O)[C@@H](O)[C@H]2O)c(=O)[nH]1 [guanosine triphosphate]
# Test: NP40-soluble protein abundance relative to vehicle (solubility fold change) (ratio); higher = more soluble protein in presence of GTP
# Method in brief: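 In three independent experiments, Jurkat crude lysate made by Dounce homogenisation was treated for 10 min at room temperature and then 3 min at 37 °C with eight concentrations ranging from 0.1 to 10 mM. It was then solubilised with 0.8% NP40 plus benzonase for 60 min at 4 °C and ultracentrifuged. The supernatant was TMT-labelled for LC-MS/MS, and each value is the fold change against the detergent-processed vehicle for the same replicate, using vsn-normalised intensities.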
Target,NP40-soluble protein abundance (concentration: 0.1mM),NP40-soluble protein abundance (concentration: 0.5mM),NP40-soluble protein abundance (concentration: 1mM),NP40-soluble protein abundance (concentration: 2mM),NP40-soluble protein abundance (concentration: 4mM),NP40-soluble protein abundance (concentration: 6mM),NP40-soluble protein abundance (concentration: 8mM),NP40-soluble protein abundance (concentration: 10mM)
A6NEM2 and related entries (UniProt P51610),0.952 ± 0.074,0.962 ± 0.063,0.981 ± 0.058,0.968 ± 0.069,0.985 ± 0.06,0.996 ± 0.056,1.01 ± 0.069,1.01 ± 0.098
C9J5J4 and related entries (UniProt Q5TKA1),1.04 ± 0.095,1.02 ± 0.053,1.07 ± 0.069,1.08 ± 0.016,1.07 ± 0.071,1.1 ± 0.052,1.14 ± 0.13,1.09 ± 0.024
C9JEH3 and related entries (UniProt Q13685),0.925 ± 0.037,0.974 ± 0.041,0.934 ± 0.027,0.956 ± 0.038,0.917 ± 0.035,0.932 ± 0.06,0.912 ± 0.049,0.965 ± 0.045
B4DZS0 and related entries (UniProt O76075),1.05 ± 0.076,1.07 ± 0.061,1.01 ± 0.098,0.991 ± 0.1,0.948 ± 0.067,0.921 ± 0.096,0.938 ± 0.071,0.912 ± 0.13
B5ME19 and related entries (UniProt Q99613+B5ME19),1.02 ± 0.077,1.01 ± 0.05,1.02 ± 0.077,1.08 ± 0.14,1.22 ± 0.24,1.32 ± 0.28,1.5 ± 0.32,1.68 ± 0.37
C9JF71 and related entries (UniProt Q8TBF5),1.02 ± 0.13,0.945 ± 0.097,0.969 ± 0.096,1 ± 0.16,0.934 ± 0.082,1.04 ± 0.17,1.03 ± 0.24,1.02 ± 0.17
UNC119B (UniProt A6NIH7),1.02 ± 0.042,1.02 ± 0.072,0.955 ± 0.1,0.932 ± 0.1,0.909 ± 0.086,0.913 ± 0.096,0.93 ± 0.086,0.91 ± 0.11
B5MCH3 and related entries (UniProt Q8N3C7),1.1 ± 0.068,1.2 ± 0.18,1.22 ± 0.23,1.3 ± 0.19,1.3 ± 0.18,1.37 ± 0.39,1.41 ± 0.27,1.32 ± 0.3
D6REX3 and related entries (UniProt O94979),0.951 ± 0.021,0.971 ± 0.019,0.933 ± 0.031,0.922 ± 0.014,0.894 ± 0.026,0.927 ± 0.018,0.888 ± 0.032,0.898 ± 0.043
C9JIK8 and related entries (UniProt Q9Y4P1),1.11 ± 0.14,1.12 ± 0.15,1.01 ± 0.081,1.05 ± 0.21,1.06 ± 0.18,0.991 ± 0.12,0.907 ± 0.12,0.89 ± 0.13
B0QZ18 and related entries (UniProt Q99829),0.995 ± 0.011,0.9817 ± 0.0091,0.896 ± 0.028,0.906 ± 0.011,0.858 ± 0.032,0.876 ± 0.022,0.849 ± 0.06,0.871 ± 0.058
B3KTM8 and related entries (UniProt Q9UBU8),0.956 ± 0.012,0.986 ± 0.054,1.07 ± 0.041,1.05 ± 0.093,1.08 ± 0.065,1.09 ± 0.083,1.149 ± 0.0086,1.13 ± 0.04
C9JJ19 and related entries (UniProt P82930),1.02 ± 0.021,1.02 ± 0.13,1.19 ± 0.14,1.24 ± 0.23,1.32 ± 0.33,1.19 ± 0.24,1.23 ± 0.23,1.09 ± 0.17
B1AJY7 and related entries (UniProt O75832),0.856 ± 0.034,0.907 ± 0.065,0.972 ± 0.12,0.95 ± 0.12,0.949 ± 0.19,0.984 ± 0.14,0.903 ± 0.062,0.959 ± 0.17
